Here are results for 30 compounds from the supplement of paper PMC8866396.

± gives the standard deviation of the averaged measurements. This is one part of the list. Repeats in this data set agree poorly, so a single value says little.

This test has as its system IL-6-GFP PC-9. Nature of the test: IL-6-GFP fluorescence relative to DMSO control (fraction of control); higher = more IL-6-GFP expression. The note with it: compound concentration: 10 uM; treatment time: 48 h. How it is done:
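IL-6-GFP-overexpressing PC-9 and PC-9GR EGFR-mutant lung cancer cells (3000 cells/well, 96-well) were treated for 48 h with each compound of the Selleck L2000 library at 10 uM. IL-6-GFP fluorescence was read on a high-content screening system, and viability by CCK-8 absorbance on a parallel plate set. Each value was normalised as compound well / DMSO control well; two independent replicates.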
`CN(N=O)C(=O)NC1C(O)OC(CO)C(O)C1O` (stereo not given) [Streptozotocin (STZ)]: the IL-6-GFP fluorescence stood at 1.11 ± 0.18. In the case of `C#Cc1cccc(Nc2ncnc3cc(OCCOC)c(OCCOC)cc23)c1.Cl` [Erlotinib HCl (OSI-744)] it was 0.799 ± 0.021.

Compound `CC(=O)OC[C@H]1O[C@@H]([S-])[C@H](OC(C)=O)[C@@H](OC(C)=O)[C@@H]1OC(C)=O.CCP(CC)CC.[Au+]` [Auranofin] yielded an IL-6-GFP fluorescence of 0.898 ± 0.25. In the case of `Cc1nnc(C(=O)NC(C)(C)c2nc(C(=O)NCc3ccc(F)cc3)c(O)c(=O)n2C)o1` [Raltegravir (MK-0518)] it was 0.857 ± 0.18; in that of `Cc1nc(NC(=O)N2CCCC2C(N)=O)sc1-c1ccnc(C(C)(C)C(F)(F)F)c1` (stereo not given) [Alpelisib (BYL719)], 1.08 ± 0.48.

In the case of `CC1CC2C(C(O)CC3(C)C2CCC3(O)C(=O)COC(=O)CCC(=O)O)C2(C)C=CC(=O)C=C12` (stereo not given) [Methylprednisolone hemisuccinate], the IL-6-GFP fluorescence stood at 0.82 ± 0.16. For `C[S+](C)CCC(N)C(=O)O.[Cl-]` (stereo not given), the IL-6-GFP fluorescence came to 0.844 ± 0.18. In the case of `CN1C(C(=O)Nc2ccccn2)=C(O)c2sccc2S1(=O)=O` [Tenoxicam] it was 0.666 ± 0.041; in that of `CCOc1ccc(Cc2cc(C34OCC(CO)(O3)C(O)C(O)C4O)ccc2Cl)cc1` (stereo not given) [Ertugliflozin], 0.765 ± 0.015; in that of `CC(C(=O)O)c1ccc(-c2ccccc2)c(F)c1` (stereo not given) [Flurbiprofen], 0.904 ± 0.15. The compound `CN(C)c1cc(CNCC(C)(C)C)c(O)c2c1CC1CC3C(N(C)C)C(O)=C(C(N)=O)C(=O)C3(O)C(O)=C1C2=O.Cc1ccc(S(=O)(=O)O)cc1` (stereo not given) [Omadacycline tosylate] displayed an IL-6-GFP fluorescence of 0.732 ± 0.012.

`COC(=O)NC(C(=O)N1CCCC1c1ncc(-c2ccc(-c3ccc(-c4cnc(C5CCCN5C(=O)C(NC(=O)OC)C(C)C)[nH]4)cc3)cc2)[nH]1)C(C)C` (stereo not given) came in with an IL-6-GFP fluorescence of 1.03 ± 0.18.

In turn, `CCC1(O)CC2CN(CCc3c([nH]c4ccccc34)C(C(=O)OC)(c3cc4c(cc3OC)N(C)C3C(O)(C(=O)OC)C(OC(C)=O)C5(CC)C=CCN6CCC43C65)C2)C1.O=S(=O)(O)O` (stereo not given) [Vinblastine sulfate] came in with an IL-6-GFP fluorescence of 1.12 ± 0.14. In the case of `CCC(=O)OC1(C(=O)SCF)C(C)CC2C3CC(F)C4=CC(=O)C=CC4(C)C3(F)C(O)CC21C` (stereo not given) [Fluticasone propionate] it was 0.922 ± 0.21. In the case of `COc1cc(N2CCC(N3CCN(C)CC3)CC2)ccc1Nc1ncc(Cl)c(Nc2ccccc2P(C)(C)=O)n1` it was 0.588 ± 0.17. In the case of `COc1ccc(C2OCC3C(c4cc(OC)c(OC)c(OC)c4)OCC23)cc1OC` (stereo not given) [Magnolin] it was 0.678 ± 0.27; in that of `NC(CCC(=O)NC(CS)C(=O)NCC(=O)O)C(=O)O` (stereo not given) [Glutathione], 0.799 ± 0.096. As to `CC1CC2C3CCC4=CC(=O)C=CC4(C)C3(Cl)C(O)CC2(C)C1(OC(=O)c1ccco1)C(=O)CCl` (stereo not given) [Mometasone furoate], the IL-6-GFP fluorescence came to 1.02 ± 0.28. In the case of `CNC(=O)c1cc(Oc2ccc(NC(=O)Nc3ccc(Cl)c(C(F)(F)F)c3)c(F)c2)ccn1.O` [Regorafenib Monohydrate] it was 0.903 ± 0.0094. As for `COc1cc(C2Oc3cc(C4Oc5cc(O)cc(O)c5C(=O)C4O)ccc3OC2CO)ccc1O` (stereo not given) [Silibinin], the IL-6-GFP fluorescence was 0.738 ± 0.15. In the case of `COc1cc(C(=O)NS(=O)(=O)c2ccccc2C)ccc1Cc1cn(C)c2ccc(NC(=O)OC3CCCC3)cc12` [Zafirlukast] it was 0.938 ± 0.14. In the case of `CC(=O)OCC1OC(n2ccc(=O)[nH]c2=O)C(OC(C)=O)C1OC(C)=O` (stereo not given) [uridine triacetate] it was 0.786 ± 0.032. In the case of `O=C(Oc1ccccc1C(=O)O)c1ccccc1O` [Sasapyrine] it was 1.03 ± 0.11; in that of `Cc1c(-c2ccc(O)cc2)n(Cc2ccc(OCCN3CCCCCC3)cc2)c2ccc(O)cc12.Cl` [Bazedoxifene HCl], 0.992 ± 0.12; in that of `CC(C(=O)O)c1cccc(C(=O)c2ccccc2)c1` (stereo not given) [Ketoprofen], 0.848 ± 0.082. `O=C1CCCC2C3CCC[N+]4([O-])CCCC(CN12)C34` (stereo not given) [Oxymatrine] had an IL-6-GFP fluorescence of 0.875 ± 0.17. Regarding `CC(C)OC(=O)CCC/C=C\CC1C(O)CC(O)C1CCC(O)CCc1ccccc1` (stereo not given) [Latanoprost], the IL-6-GFP fluorescence was 0.912 ± 0.11. In the case of `COc1cc(CNC(=O)CCCC/C=C\C(C)C)ccc1O` [Zucapsaicin] it was 0.882 ± 0.066; in that of `CC1CC2C3CCC4=CC(=O)C=CC4(C)C3(F)C(O)CC2(C)C1C(=O)CO` (stereo not given) [Desoximetasone], 0.914 ± 0.024; in that of `COc1ccc2cc1Oc1ccc(cc1)CC1c3cc(c(OC)cc3CCN1C)Oc1c(O)c(OC)cc3c1C(C2)N(C)CC3` (single isomer, unassigned; (+)) [(+)-Fangchinoline], 0.824 ± 0.097.
